Data taken from doi:10.1101/2020.08.14.246132.
These are yes or no findings as the source states them, for the method shown. Binding seen in cells or lysates may run through a third protein. Some binding calls cover weakened binding; strength is not graded here. Where a sequence is shown, tags or fusion partners need not be part of it.

Target: T1, Full-length human NLRP1 with a C-terminal FLAG tag (NLRP1-FLAG), wild type (human), Q9C000
T1 chain: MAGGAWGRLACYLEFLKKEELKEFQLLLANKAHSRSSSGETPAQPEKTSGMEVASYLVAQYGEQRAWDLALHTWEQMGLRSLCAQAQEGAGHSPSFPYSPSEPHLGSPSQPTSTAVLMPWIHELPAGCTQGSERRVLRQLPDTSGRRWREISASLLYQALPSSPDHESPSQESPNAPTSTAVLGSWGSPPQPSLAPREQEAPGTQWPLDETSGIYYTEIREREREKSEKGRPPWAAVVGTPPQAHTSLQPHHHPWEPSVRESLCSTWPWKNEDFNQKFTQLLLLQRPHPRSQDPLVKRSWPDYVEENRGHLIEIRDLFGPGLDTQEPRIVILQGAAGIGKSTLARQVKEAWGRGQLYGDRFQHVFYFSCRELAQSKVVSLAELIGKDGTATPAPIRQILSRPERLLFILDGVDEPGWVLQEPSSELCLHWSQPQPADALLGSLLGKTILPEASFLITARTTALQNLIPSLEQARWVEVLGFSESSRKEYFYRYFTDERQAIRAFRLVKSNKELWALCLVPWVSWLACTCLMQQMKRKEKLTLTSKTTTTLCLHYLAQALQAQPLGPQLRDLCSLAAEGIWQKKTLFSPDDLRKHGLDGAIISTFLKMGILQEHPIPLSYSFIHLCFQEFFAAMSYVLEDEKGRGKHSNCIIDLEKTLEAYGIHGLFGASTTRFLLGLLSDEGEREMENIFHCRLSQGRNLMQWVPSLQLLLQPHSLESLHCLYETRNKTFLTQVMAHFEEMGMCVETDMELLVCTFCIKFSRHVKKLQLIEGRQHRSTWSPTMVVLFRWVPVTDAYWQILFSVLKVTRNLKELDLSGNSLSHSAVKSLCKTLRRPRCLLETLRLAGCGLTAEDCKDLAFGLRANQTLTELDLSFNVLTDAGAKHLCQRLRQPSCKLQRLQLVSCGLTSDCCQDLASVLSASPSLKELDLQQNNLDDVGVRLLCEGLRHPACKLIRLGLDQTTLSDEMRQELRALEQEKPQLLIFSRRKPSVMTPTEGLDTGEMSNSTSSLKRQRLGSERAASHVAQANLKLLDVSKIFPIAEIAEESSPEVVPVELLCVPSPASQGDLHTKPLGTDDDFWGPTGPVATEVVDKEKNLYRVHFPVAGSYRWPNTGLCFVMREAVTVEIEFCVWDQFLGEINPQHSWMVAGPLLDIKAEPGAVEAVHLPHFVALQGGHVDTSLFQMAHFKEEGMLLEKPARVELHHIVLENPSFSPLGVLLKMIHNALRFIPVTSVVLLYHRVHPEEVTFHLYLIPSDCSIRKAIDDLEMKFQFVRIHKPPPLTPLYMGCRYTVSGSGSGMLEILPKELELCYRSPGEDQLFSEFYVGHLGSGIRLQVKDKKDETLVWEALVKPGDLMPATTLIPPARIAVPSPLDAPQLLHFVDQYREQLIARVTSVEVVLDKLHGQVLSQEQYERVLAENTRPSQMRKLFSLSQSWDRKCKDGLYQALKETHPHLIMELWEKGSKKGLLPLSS
Assay: co-IP
Conditions: remark: other sources report otherwise

B1: DPP9, short isoform, N-terminal His tag (His-TEV-DPP9), wild type, for co-immunoprecipitation, Q86TI2-1 1-863 (enzyme)
chain: MATTGTPTADRGDAAATDDPAARFQVQKHSWDGLRSIIHGSRKYSGLIVNKAPHDFQFVQKTDESGPHSHRLYYLGMPYGSRENSLLYSEIPKKVRKEALLLLSWKQMLDHFQATPHHGVYSREEELLRERKRLGVFGITSYDFHSESGLFLFQASNSLFHCRDGGKNGFMVSPMKPLEIKTQCSGPRMDPKICPADPAFFSFINNSDLWVANIETGEERRLTFCHQGLSNVLDDPKSAGVATFVIQEEFDRFTGYWWCPTASWEGSEGLKTLRILYEEVDESEVEVIHVPSPALEERKTDSYRYPRTGSKNPKIALKLAEFQTDSQGKIVSTQEKELVQPFSSLFPKVEYIARAGWTRDGKYAWAMFLDRPQQWLQLVLLPPALFIPSTENEEQRLASARAVPRNVQPYVVYEEVTNVWINVHDIFYPFPQSEGEDELCFLRANECKTGFCHLYKVTAVLKSQGYDWSEPFSPGEDEFKCPIKEEIALTSGEWEVLARHGSKIWVNEETKLVYFQGTKDTPLEHHLYVVSYEAAGEIVRLTTPGFSHSCSMSQNFDMFVSHYSSVSTPPCVHVYKLSGPDDDPLHKQPRFWASMMEAASCPPDYVPPEIFHFHTRSDVRLYGMIYKPHALQPGKKHPTVLFVYGGPQVQLVNNSFKGIKYLRLNTLASLGYAVVVIDGRGSCQRGLRFEGALKNQMGQVEIEDQVEGLQFVAEKYGFIDLSRVAIHGWSYGGFLSLMGLIHKPQVFKVAIAGAPVTVWMAYDTGYTERYMDVPENNQHGYEAGSVALHVEKLPNEPNRLLILHGFLDENVHFFHTNFLVSQLIRAGKPYQLQIYPNERHSIRCPESGEHYEVTLLHFLQEYL
- binding: binds
